Data reported in patent US20200268897 (published 2020).

Experiment: general procedure: Fmoc solid-phase peptide synthesis; HATU/DIPEA
Conditions: late stage modification step

Substance | step yield [% yield] | step yield (HCl salt) [% yield]
KRVHF-NMe (protected) | 35 | 
(TBK1-Diglycolate-0PEG)-(KRVHF-NMe) |  | 19
